Laboratory results: PubChem BioAssay AID1053208 (Peter MacCallum Cancer Centre, 2014)
The deposit covers about 17,000 reagents; shown is an unselected part. In the full data, 788 (4.7%) are marked active. 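Calls rest on z-score classes alone; an extra cut-off of viability at most 70% of control was not applied to them.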 Reagent sequences are not shown.

Assay: 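Genes whose silencing cuts survival of bone tumour cells only with doxorubicin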 (primary screen)
Cell system: mouse osteosarcoma cells, early-passage culture from an engineered mouse model of fibroblastic bone tumour
Reagents: siRNA pool against mouse genes, 40 nM
Timing: about 120 h (48 h before drug, then 72 h with drug)
Treatment: doxorubicin 100 nM for 72 h, roughly 30-40% inhibitory dose
Measured: 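Viability read as ATP luminescence after 72 h of 100 nM doxorubicin or none, duplicate wells averaged, scaled to non-targeting siRNA, then expressed as robust z-scores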
Scale: viability z-score with doxorubicin and doxorubicin viability vs non-targeting: higher = more viable cells under doxorubicin; viability z-score without drug: higher = more viable cells with knock-down alone; z-score of drug to no-drug ratio: higher = less drug sensitisation by knock-down
Hit rule: 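Called active if knock-down leaves viability unchanged without drug (z within -2 to 2) but lowers it with doxorubicin (z at or under -2)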

target	combined z-score class	viability z-score with doxorubicin	viability z-score without drug	z-score of drug to no-drug ratio	doxorubicin viability vs non-targeting	Outcome
Atp2a3 (ATPase, Ca++ transporting, ubiquitous)	no change with or without drug	-0.9	-0.84	-0.22	0.86	inactive
P4htm (prolyl 4-hydroxylase, transmembrane (endoplasmic reticulum))	low cell count with and without drug	-2.7	-2.53	-1.24	0.7	inactive
Ly6g5b (lymphocyte antigen 6 family member G5B)	no change with or without drug	-0.45	-0.17	-0.22	0.9	inactive
Insig2 (insulin induced gene 2)	no change with or without drug	0.9	1.52	0	1.02	inactive
Gm5089 (predicted gene 5089)	no change with or without drug	0.67	-0.84	1.46	1	inactive
Or6c69c (olfactory receptor family 6 subfamily C member 69C)	no change with or without drug	-1.8	0.34	-2.02	0.78	inactive
Or52b2 (olfactory receptor family 52 subfamily B member 2)	no change with or without drug	-0.67	-0.17	-0.45	0.88	inactive
Gnpat (glyceronephosphate O-acyltransferase)	no change with or without drug	-1.46	-1.52	-0.45	0.81	inactive
Stx2 (syntaxin 2)	no change with or without drug	1.12	0.84	0.67	1.04	inactive
Phaf1 (phagosome assembly factor 1)	no change with or without drug	-1.12	-0.67	-0.67	0.84	inactive
Dad1 (defender against cell death 1)	no change with or without drug	-0.67	-1.85	0.79	0.88	inactive
Tgm1 (transglutaminase 1, K polypeptide)	no change with or without drug	0.9	0.17	0.9	1.02	inactive
Pafah1b1	no change with or without drug	0	-1.85	1.57	0.94	inactive
Dhx33 (DEAH-box helicase 33)	no change with or without drug	0.79	0.34	0.67	1.01	inactive
Tgfb1i1 (transforming growth factor beta 1 induced transcript 1)	no change with or without drug	-0.9	0	-0.79	0.86	inactive
Rnf214 (ring finger protein 214)	no change with or without drug	0.45	0.67	0.11	0.98	inactive
Reep6 (receptor accessory protein 6)	no change with or without drug	0.56	0.34	0.45	0.99	inactive
Dhx16 (DEAH-box helicase 16)	no change with or without drug	1.57	-1.18	2.81	1.08	inactive
Crym (crystallin, mu)	no change with or without drug	0.67	1.01	0.11	1	inactive
Dusp12 (dual specificity phosphatase 12)	no change with or without drug	0.56	0.84	0.11	0.99	inactive

Single entries from the list:
Result of Or6c69c (olfactory receptor family 6 subfamily C member 69C) in “viability z-score without drug”: 0.34
Under “doxorubicin viability vs non-targeting”, Reep6 (receptor accessory protein 6) shows 0.99
